PubChem BioAssay AID1259331 – Drosophila RNAi Screening Center, 2017

Purpose: 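Genes whose knock-down changes cell survival under toxic zinc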 (primary screen)
Cells: Drosophila S2R+ cells
Reagent: long dsRNA against Drosophila genes
Timing: 5 days (4 days knock-down, then 1 day zinc)
Treatment: zinc chloride at 15 mM final level for 1 day
Read-out: 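Total cellular ATP measured by luciferase luminescence as a viability proxy, turned into Z scores from three plate copies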
Direction: mean Z score: higher = more ATP than other wells, better survival under zinc; ATP luminescence: higher = more ATP, more viable cells
Hit rule: 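a reagent is called a hit when its Z score is above 1.5 or below -1.5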
Meaning of the calls: active = hit, ATP up or down; inactive = not a hit
The deposit covers about 3,100 reagents; this is an unselected part. 126 of them (4.1%) count as active. 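Calls are per reagent; zinc was so toxic that few knock-downs lowered ATP further, so most hits raise ATP.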 The raw values are shown without normalisation. A plus sign joins genes that one reagent is predicted to hit. Not given: the amount of reagent.

The opening 3 entries, to show the layout:
| gene knocked down | DRSC id | mean Z score | ATP luminescence, replicate 1 | ATP luminescence, replicate 2 | Outcome |
| --- | --- | --- | --- | --- | --- |
| Gr98b | DRSC21675 | 0.176 | 49229 | 50121 | inactive |
| Gr98b | DRSC39891 | -0.157 | 57117 | 59403 | inactive |
| CG13793 | DRSC02297 | -0.256 | 46522 | 36250 | inactive |

The listing, repeating the preview:
| gene knocked down | DRSC id | mean Z score | ATP luminescence, replicate 1 | ATP luminescence, replicate 2 | Outcome |
| --- | --- | --- | --- | --- | --- |
| Gr98b | DRSC21675 | 0.176 | 49229 | 50121 | inactive |
| Gr98b | DRSC39891 | -0.157 | 57117 | 59403 | inactive |
| CG13793 | DRSC02297 | -0.256 | 46522 | 36250 | inactive |
| CG13793 | DRSC28252 | 0.156 | 63959 | 63635 | inactive |
| RYa-R | DRSC16757 | -0.58 | 39782 | 37365 | inactive |
| CG33673 | DRSC00084 | -0.218 | 38942 | 40928 | inactive |
| CG33673 | DRSC38938 | 0.00495 | 47154 | 48252 | inactive |
| CG10019 | DRSC24959 | -0.357 | 39422 | 54990 | inactive |
| NijC | DRSC14851 | -0.357 | 40639 | 54973 | inactive |
| NijC | DRSC29054 | 0.045 | 61695 | 62484 | inactive |
| CG7840 | DRSC03075 | -0.337 | 53378 | 49418 | inactive |
| CG7840 | DRSC39867 | -0.505 | 52480 | 51647 | inactive |
| mah | DRSC14645 | -0.468 | 36867 | 51629 | inactive |
| mah | DRSC28300 | -0.11 | 58540 | 60872 | inactive |
| Ir7f | DRSC18012 | 0.182 | 43639 | 43605 | inactive |
| CG5805 | DRSC15878 | -0.384 | 40877 | 43734 | inactive |
| CG5805 | DRSC39631 | 0.0998 | 60916 | 59294 | inactive |
| S2P | DRSC07311 | -0.422 | 67577 | 65382 | inactive |
| S2P | DRSC27864 | -0.499 | 53653 | 46606 | inactive |
| Mrp5 | DRSC15597 | -0.906 | 29222 | 46657 | inactive |
| Mrp5 | DRSC15598 | -0.237 | 44445 | 39970 | inactive |
| Mrp5 | DRSC25669 | -0.569 | 50138 | 55145 | inactive |
| nompC | DRSC03581 | -0.138 | 46863 | 41933 | inactive |
| nompC | DRSC39807 | -0.721 | 45440 | 46691 | inactive |
| CG14440 | DRSC23008 | -0.212 | 48286 | 42662 | inactive |
| CG14440 | DRSC25806 | -0.137 | 54510 | 50995 | inactive |
| Amnionless | DRSC00317 | -0.581 | 38428 | 39197 | inactive |
| Cnx99A | DRSC25426 | -0.207 | 37056 | 62450 | inactive |
| Or85b | DRSC16765 | -0.631 | 33079 | 46674 | inactive |
| Or85b | DRSC39611 | -0.266 | 53241 | 57099 | inactive |
| Lap1 | DRSC07454 | 0.846 | 88705 | 85347 | inactive |
| Lap1 | DRSC39730 | -0.00705 | 65176 | 55590 | inactive |
| CG3690 | DRSC18170 | 0.513 | 46897 | 50498 | inactive |
| CG3690 | DRSC18641 | -0.372 | 57607 | 62210 | inactive |
| Vha100-2 | DRSC14152 | 0.803 | 55625 | 56842 | inactive |
| Vha100-2 | DRSC29227 | 0.277 | 56602 | 74884 | inactive |
| CG33310 | DRSC01897 | -0.0515 | 46520 | 42936 | inactive |
| CG33310 | DRSC24914 | -0.0868 | 49418 | 70888 | inactive |
| gogo | DRSC10070 | 2.92 | 1.26e5 | 1.04e5 | active |
| gogo | DRSC10071 | -0.187 | 39970 | 42062 | inactive |
| CG1607 | DRSC15130 | -0.316 | 40896 | 42297 | inactive |
| CG1607 | DRSC27010 | 0.227 | 65714 | 59637 | inactive |
| PGRP-SC1a | DRSC06482 | 0.245 | 76633 | 79172 | inactive |
| Or65b | DRSC08809 | -0.103 | 41431 | 41239 | inactive |
| Or65b | DRSC39719 | 0.897 | 76239 | 76056 | inactive |
| CG6696 | DRSC20004 | 0.884 | 49212 | 60392 | inactive |
| CG6696 | DRSC25648 | 0.171 | 58231 | 57682 | inactive |
| mbo | DRSC16123 | 1.69 | 63221 | 66285 | active |
| mbo | DRSC39478 | 0.941 | 69927 | 39525 | inactive |
| ppk22 | DRSC22093 | -0.000175 | 48560 | 49572 | inactive |
| Tret1-2 | DRSC07117 | 2.73 | 1.35e5 | 1.37e5 | active |
| Tret1-2 | DRSC28985 | 0.0661 | 63890 | 60906 | inactive |
| Nup153 | DRSC19904 | 0.421 | 48903 | 54664 | inactive |
| Tmtc3 | DRSC04444 | -0.111 | 29393 | 31005 | inactive |
| Coq2 | DRSC29659 | -0.0116 | 59294 | 63170 | inactive |
| Coq2 | DRSC39437 | 0.391 | 58694 | 55632 | inactive |
| CG9555 | DRSC03264 | -0.835 | 28947 | 36027 | inactive |
| CG9555 | DRSC25330 | -0.372 | 45085 | 56911 | inactive |
| CG9447 | DRSC05008 | -0.193 | 81607 | 65742 | inactive |
| ZnT41F | DRSC04850 | -0.145 | 29290 | 32787 | inactive |
| CG45067 + CG45066 | DRSC08414 | 0.183 | 80110 | 67543 | inactive |
| CG45067 + CG45066 | DRSC27186 | 0.337 | 67372 | 62381 | inactive |
| CG32053 | DRSC10683 | 1.06 | 45119 | 40125 | inactive |
| CG11425 | DRSC11657 | 0.46 | 89824 | 65039 | inactive |
| CG11425 | DRSC28400 | -0.21 | 56859 | 59466 | inactive |
| wgn | DRSC19998 | -0.431 | 40553 | 37485 | inactive |
| wgn | DRSC39695 | 0.864 | 74747 | 73631 | inactive |
| ds | DRSC00815 | 1.09 | 60777 | 54184 | inactive |
